Assay results from patent US12378320B2, “Methods for treating pancreatitis” (Cold Spring Harbor Laboratory, priority 2018, dated 2025).

B1: Q99KP6 (protein, UniProt Q99KP6 1-504, looked up)
chain: MSLICSISNEVPEHPCVSPVSNHVYERRLIEKYIAENGTDPINNQPLSEEQLIDIKVAHPIRPKPPSATSIPAILKALQDEWDAVMLHSFTLRQQLQTTRQELSHALYQHDAACRVIARLTKEVTAAREALATLKPQAGLIVPQAVPSSQPSVVGAGEPMDLGELVGMTPEIIQKLQDKATVLTTERKKRGKTVPEELVKPEELSKYRQVASHVGLHSASIPGILALDLCPSDTNKILTGGADKNVVVFDKSTEQILATLKGHTKKVTSVVFHPSQELVFSASPDATIRIWSVPNTSCVQVVRAHESAVTGLSLHATGDYLLSSSDDQYWAFSDIQTGRVLTKVTDETSGCSLTCAQFHPDGLIFGTGTMDSQIKIWDLKERTNVANFPGHSGPITSIAFSENGYYLATAADDSSVKLWDLRKLKNFKTLQLDNNFEVKSLIFDQSGTYLALGGTDVQIYICKQWTEILHFTEHSGLTTGVAFGHHAKFIASTGMDRSLKFYSL
modifications: full-length
B2: Q64674 (protein, UniProt Q64674 1-302, looked up)
chain: MEPGPDGPAAPGPAAIREGWFRETCSLWPGQALSLQVEQLLHHRRSRYQDILVFRSKTYGNVLVLDGVIQCTERDEFSYQEMIANLPLCSHPNPRKVLIIGGGDGGVLREVVKHPSVESVVQCEIDEDVIEVSKKFLPGMAVGFSSSKLTLHVGDGFEFMKQNQDAFDVIITDSSDPMGPAESLFKESYYQLMKTALKEDGILCCQGECQWLHLDLIKEMRHFCKSLFPVVDYAYCSIPTYPSGQIGFMLCSKNPSTNFREPVQQLTQAQVEQMQLKYYNSDMHRAAFVLPEFTRKALNDIS
modifications: full-length
B3: P97310 (protein, UniProt P97310 1-904, looked up)
chain: MAESSESLSASSPARQRRRISDPLTSSPGRSSRRADALTSSPGRDLPPFEDESEGLLGTEGPMEEEEDGEELIGDGMERDYRPIPELDVYEAEGLALDDEDVEELTASQREAAERTMRQRDREAGRGLGRMRRGLLYDSSEEDEERPARKRRHVERATEDGEEDEEMIESIENLEDLKGHSVREWVSMAGPRLEIHHRFKNFLRTHVDSHGHNVFKERISDMCKENRESLVVNYEDLAAREHVLAYFLPEAPAELLQIFDEAALEVVLAMYPKYDRITNHIHVRISHLPLVEELRSLRQLHLNQLIRTSGVVTSCTGVLPQLSMVKYNCSKCNFVLGPFCQSQNQEVKPGSCPECQSAGPFEINMEETIYQNYQRIRIQESPGKVAAGRLPRSKDAILLADLVDSCKPGDEIELTGIYHNNYDGSLNTANGFPVFATIILANHVAKKDNKVAVGELTDEDVKMITGLSKDQQIGEKIFASIAPSIYGHEDIKRGLALALFGGEPKNPGGKHKVRGDINVLLCGDPGTAKSQFLKYIEKVSSRAIFTTGQGASAVGLTAYVQRHPVSREWTLEAGALVLADRGVCLIDEFDKMNDQDRTSIHEAMEQQSISISKAGIVTSLQARCTVIAAANPIGGRYDPSLTFSENVDLTEPIISRFDVLCVVRDTVDPVQDEMLARFVVGSHVRHHPSNKKDEGLTNGGTLEPAMPNTYGVEPLPQEVLKKYIIYAKERVRPKLNQMDQDKVARMYSDLRKESMATGSIPITVRHIESMIRMAEAHARMHLRDYVMEDDVNMAIRVMMESFIDTQKFSVMRSMRKTFARYLSFRRDNNDLLLFILKQLVAEQVTYQRNRFGAQQDTIEIPEKDLMDKARQINIHNLSAFYDSDLFKFNKFSRDLKRKLILQQF
modifications: full-length
B4: P52955 (protein, UniProt P52955 1-282, looked up)
chain: MTSKEDGKAAPGEERRRSPLDHLPPPANSNKPLTPFSIEDILNKPSVRRSYSLCGAAHLLAAADKHAPGGLPLAGRALLSQTSPLCALEELASKTFKGLEVSVLQAAEGRDGMTIFGQRQTPKKRRKSRTAFTNHQIYELEKRFLYQKYLSPADRDQIAQQLGLTNAQVITWFQNRRAKLKRDLEEMKADVESAKKLGPSGQMDIVALAELEQNSEASGGGGGGGCGRAKSRPGSPALPPGAPQAPGGGPLQLSPASPLTDQRASSQDCSEDEEDEEIDVDD
modifications: full-length
B5: Q8VGI4 (protein, UniProt Q8VGI4 1-310, looked up)
chain: METQNHTTVTEFILLGLTESSTLRVILFMVFLGIYTVTLVGNFSIISLIRSCPQLHTPMYLFLSHLAFVDIGFSTSITPTMFKGFLGNRLVLSVAACIAQFCITVTFGTVECFLLAVMAYDRYVAICSPLLYSTHMSPRICFLLVGASYVGGCVNSGAFTSCLSILSFCGPNQIDHFFCDFPAVLKLSCSDVSIIGIIPSISAGSIIVITVFVIAVSYAYILITILKMRSTEGRQKAFSTCTSHLTAVTLYYGTITFIYVMPKSNYSTAQNKILSVFYTVVIPMLNPLIYSLRNRDVKEALRKAIIRIFP
modifications: full-length
B6: Q9CZD3 (protein, UniProt Q9CZD3 1-729, looked up)
chain: MPCLLPSLLRATRAALPLLSPPRVVAASASQRLLSAPAQPAASRSSMDSAEELLAPLRLAVRQQGDFVRKLKEDKAPQVDVDRAVAELKARKRVLEAKELALQPKDDIVDRAKMEDTLKRRFFYDQAFAIYGGVSGLYDFGPVGCALKNNIIQAWRQHFIQEEQILEIDCTMLTPEPVLKTSGHVDKFADFMVKDVKNGECFRADHLLKAHLQKLMSDKKCSAEKKSEMESVLAQLDNYGQQELADLFVNYNVKSPTTGNDLSPPVPFNLMFQTFIGPGGNMPGYLRPETAQGIFLNFKRLLEFNQGKLPFAAAQIGNSFRNEISPRSGLIRVREFTMAEIEHFVDPTEKDHPKFQSVADLCLYLYSAKAQVTGQSARKMRLGDAVEQGVINNSVLGYFIGRIYLYLTKVGISPDKLRFRQHMENEMAHYACDCWDAESKTSYGWIEIVGCADRSCYDLSCHARATKVPLVAEKPLKEPKTVNVVQFEPNKGAVGKAYKKDAKLVLEYLSACDECYISEMELLLSEKGEFTIETEGKTFQLTKDMVSVKRFQKTLHVEEVVPSVIEPSFGLGRIMYTILEHTFHVREGDEQRTFFSFPAVVAPFKCSVLPLSQNQEFMPFVKELSEALTRNGVSHKVDDSSGSIGRRYARTDEIGVAFGITIDFDTVNKTPHTATLRDRDSMRQIRAEVSELPNVVRDLANGNITWADVEARYPLFEGQETGKKETVEE
modifications: full-length

The molecules below were run on CA19-9 modified proteins (assay: CA19-9 IP/MS (iTRAQ) of organoid conditioned media after Dox treatment). Conditions: A217 organoid conditioned media, 0H, 5B1.
Design: species or system mouse

Row | Molecule | 17 0H 5B1 (CA19-9 IP/MS relative abundance)
1 | B1 | 4.136
2 | B2 | 2.696
3 | B3 | 1.542
4 | B4 | 0.11
5 | B5 | 3.468
6 | B6 | 5.688

Same assay, conditions: A217 organoid conditioned media, 0H, NS19-9; every printed value in this column is 1

Row | Molecule | 17 0H NS19 (CA19-9 IP/MS relative abundance)
7 | B1 | 1
8 | B2 | 1
9 | B3 | 1
10 | B4 | 1
11 | B5 | 1
12 | B6 | 1

Same assay, conditions: A217 organoid conditioned media, 8 hours, 5B1

Row | Molecule | 17 8H 5B1 (CA19-9 IP/MS relative abundance)
13 | B1 | 3.436
14 | B2 | 3.056
15 | B3 | 1.411
16 | B4 | 0.108
17 | B5 | 3.627
18 | B6 | 5.299

Same assay, conditions: A217 organoid conditioned media, 8 hours, NS19-9

Row | Molecule | 17 8H NS19 (CA19-9 IP/MS relative abundance)
19 | B1 | 0.411
20 | B2 | 0.569
21 | B3 | 0.409
22 | B4 | 0.826
23 | B5 | 0.255
24 | B6 | 0.441

Same assay, conditions: A220 organoid conditioned media, 0H, 5B1

Row | Molecule | 20 0H 5B1 (CA19-9 IP/MS relative abundance)
25 | B1 | 3.364
26 | B2 | 2.561
27 | B3 | 1.777
28 | B4 | 0.092
29 | B5 | 3.109
30 | B6 | 4.688

Same assay, conditions: A220 organoid conditioned media, 0H, NS19-9

Row | Molecule | 20 0H NS19 (CA19-9 IP/MS relative abundance)
31 | B1 | 0.514
32 | B2 | 0.412
33 | B3 | 0.512
34 | B4 | 0.643
35 | B5 | 0.322
36 | B6 | 1.021

Same assay, conditions: A220 organoid conditioned media, 8 hours, 5B1

Row | Molecule | 20 8H 5B1 (CA19-9 IP/MS relative abundance)
37 | B1 | 4.537
38 | B2 | 3.135
39 | B3 | 2.25
40 | B4 | 0.084
41 | B5 | 3.6
42 | B6 | 4.333

Same assay, conditions: A220 organoid conditioned media, 8 hours, NS19-9

Row | Molecule | 20 8H NS19 (CA19-9 IP/MS relative abundance)
43 | B1 | 0.591
44 | B2 | 0.466
45 | B3 | 0.44
46 | B4 | 0.732
47 | B5 | 0.366
48 | B6 | 1.066
